{"source": "PubChem BioAssay AID743454 (Peter MacCallum Cancer Centre, 2014)", "aim": "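Genes whose loss kills vorinostat-resistant colon cancer cells under vorinostat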 (primary screen)", "cells": "human HCT116-VR colon cancer cells, selected for vorinostat resistance", "knock-down reagent": "siRNA pool against human genes, 40 nM siRNA pool", "time to read-out": "vorinostat for 24 h, read-out about 72 h after transfection", "challenge": "vorinostat at 2.5 µM final", "detection": "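Cell viability by CellTiter-Fluor and caspase 3/7 activity by luminescence, each scaled to mock wells per plate, duplicates averaged, then robust z-scored over all plates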", "scale": "viability robust z-score: higher = more viable cells than screen typical; caspase robust z-score: higher = more caspase 3/7 activity than screen typical", "hit rule": "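a knock-down is a hit when classed RV1 or RV2 for lowered viability, or CA1 or CA2 for caspase activation; those lethal without drug were dropped; hits were retested singly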", "note": "The deposit covers about 18,000 reagents; shown is an unselected part. 450 of all reagents (2.5%) count as active. 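Single biological run; no consistent viability z cut-off exists, so the class columns, not z-scores, define the calls.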 Unmarked entries are inactive."}
{"Gene": "MSMB", "viability hit class": "no change", "caspase hit class": "no change", "viability robust z-score": -0.29, "caspase robust z-score": 2.68}
{"Gene": "PGAM5", "viability hit class": "no change", "caspase hit class": "no change", "viability robust z-score": -3.84, "caspase robust z-score": 0.96}
{"Gene": "SPACA1", "viability hit class": "no change", "caspase hit class": "no change", "viability robust z-score": 0.99, "caspase robust z-score": -0.14}
{"Gene": "CXCR5", "viability hit class": "no change", "caspase hit class": "no change", "viability robust z-score": 0.36, "caspase robust z-score": 1.43}
{"Gene": "ZNF709", "viability hit class": "no change", "caspase hit class": "no change", "viability robust z-score": -1.17, "caspase robust z-score": 2.25}

2 successive reagents from above:
{"Gene": "SPACA1", "viability hit class": "no change", "caspase hit class": "no change", "viability robust z-score": 0.99, "caspase robust z-score": -0.14}
{"Gene": "CXCR5", "viability hit class": "no change", "caspase hit class": "no change", "viability robust z-score": 0.36, "caspase robust z-score": 1.43}

Further records follow.
{"Gene": "DOCK3", "viability hit class": "no change", "caspase hit class": "no change", "viability robust z-score": 0.22, "caspase robust z-score": 0.15}
{"Gene": "TASOR", "viability hit class": "no change", "caspase hit class": "no change", "viability robust z-score": -0.24, "caspase robust z-score": 0.76}
{"Gene": "TENT4A", "viability hit class": "no change", "caspase hit class": "no change", "viability robust z-score": -0.08, "caspase robust z-score": -1.19}
{"Gene": "APOBEC3G", "viability hit class": "no change", "caspase hit class": "no change", "viability robust z-score": 0.46, "caspase robust z-score": -0.23}
{"Gene": "MMP13", "viability hit class": "no change (active)", "caspase hit class": "CA1 (caspase activation)", "viability robust z-score": -0.8, "caspase robust z-score": 5.47}
{"Gene": "CDCA3", "viability hit class": "no change", "caspase hit class": "no change", "viability robust z-score": -0.52, "caspase robust z-score": -0.4}
{"Gene": "ZBTB14", "viability hit class": "no change", "caspase hit class": "no change", "viability robust z-score": 0.82, "caspase robust z-score": -0.75}
